The text below walks through data of the supplement of paper PMC11732987, “Enantioselective OTUD7B fragment discovery through chemoproteomics screening and high-throughput optimisation” (Communications Chemistry, 2025).

Amino acid sequences for entries named in this document (tags omitted). A change or cut given only in a name is not applied to a line headed by its entry. Residues count along the entry.
UniProt Q9Y4W6: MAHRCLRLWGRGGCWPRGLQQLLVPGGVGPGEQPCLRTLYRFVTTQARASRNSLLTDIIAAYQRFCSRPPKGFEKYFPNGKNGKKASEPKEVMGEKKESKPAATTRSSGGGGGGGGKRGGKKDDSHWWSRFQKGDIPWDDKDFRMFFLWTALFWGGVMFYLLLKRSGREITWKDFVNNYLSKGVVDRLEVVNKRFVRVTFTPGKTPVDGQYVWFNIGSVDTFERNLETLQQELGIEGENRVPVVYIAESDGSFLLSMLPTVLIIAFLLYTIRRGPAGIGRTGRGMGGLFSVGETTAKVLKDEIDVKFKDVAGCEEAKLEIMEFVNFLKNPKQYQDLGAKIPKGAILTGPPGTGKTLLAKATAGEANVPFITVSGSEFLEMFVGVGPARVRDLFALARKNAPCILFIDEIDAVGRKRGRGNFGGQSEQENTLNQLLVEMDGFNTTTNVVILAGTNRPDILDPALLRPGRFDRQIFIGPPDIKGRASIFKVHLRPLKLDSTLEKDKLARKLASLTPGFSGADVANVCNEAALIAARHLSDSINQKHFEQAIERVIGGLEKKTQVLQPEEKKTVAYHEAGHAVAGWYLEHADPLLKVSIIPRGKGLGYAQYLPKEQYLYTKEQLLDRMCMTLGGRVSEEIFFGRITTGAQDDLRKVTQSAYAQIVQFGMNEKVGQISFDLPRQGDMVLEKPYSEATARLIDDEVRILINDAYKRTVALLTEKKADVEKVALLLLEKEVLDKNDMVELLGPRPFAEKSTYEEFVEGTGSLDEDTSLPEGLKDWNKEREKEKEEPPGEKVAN
UniProt P49419: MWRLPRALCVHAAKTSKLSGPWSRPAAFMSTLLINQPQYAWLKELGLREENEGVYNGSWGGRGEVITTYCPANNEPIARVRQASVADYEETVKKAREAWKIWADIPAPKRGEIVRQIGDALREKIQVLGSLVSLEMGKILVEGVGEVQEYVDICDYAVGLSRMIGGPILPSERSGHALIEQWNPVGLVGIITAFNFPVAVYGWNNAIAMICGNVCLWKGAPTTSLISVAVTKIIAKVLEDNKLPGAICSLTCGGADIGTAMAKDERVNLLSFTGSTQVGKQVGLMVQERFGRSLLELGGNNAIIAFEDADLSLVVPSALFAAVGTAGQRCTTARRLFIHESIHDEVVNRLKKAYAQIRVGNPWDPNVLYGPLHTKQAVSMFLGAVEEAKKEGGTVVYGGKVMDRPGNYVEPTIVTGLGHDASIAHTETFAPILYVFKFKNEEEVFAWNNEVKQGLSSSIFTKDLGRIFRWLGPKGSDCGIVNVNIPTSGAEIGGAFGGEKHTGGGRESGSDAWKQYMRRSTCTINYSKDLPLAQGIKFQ
UniProt Q9UJX4: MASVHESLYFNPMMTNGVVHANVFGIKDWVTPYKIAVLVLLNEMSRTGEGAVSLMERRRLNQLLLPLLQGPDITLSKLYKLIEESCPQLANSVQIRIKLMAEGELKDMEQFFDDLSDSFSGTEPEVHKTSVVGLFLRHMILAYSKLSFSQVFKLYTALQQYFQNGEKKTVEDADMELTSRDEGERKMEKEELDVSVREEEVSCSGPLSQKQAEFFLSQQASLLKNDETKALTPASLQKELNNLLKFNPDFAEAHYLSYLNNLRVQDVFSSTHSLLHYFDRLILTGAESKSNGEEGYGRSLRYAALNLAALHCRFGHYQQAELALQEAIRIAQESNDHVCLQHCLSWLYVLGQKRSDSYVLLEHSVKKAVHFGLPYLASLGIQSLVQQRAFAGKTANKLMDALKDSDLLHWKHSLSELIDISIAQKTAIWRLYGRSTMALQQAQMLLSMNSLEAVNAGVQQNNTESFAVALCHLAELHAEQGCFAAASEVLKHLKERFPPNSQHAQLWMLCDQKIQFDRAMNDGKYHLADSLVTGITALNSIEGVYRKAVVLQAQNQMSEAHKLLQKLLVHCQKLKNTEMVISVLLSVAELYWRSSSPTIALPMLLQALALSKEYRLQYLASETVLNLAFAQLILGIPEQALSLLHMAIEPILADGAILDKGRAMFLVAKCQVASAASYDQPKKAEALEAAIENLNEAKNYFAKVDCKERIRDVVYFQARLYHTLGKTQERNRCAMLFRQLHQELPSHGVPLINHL
UniProt Q9NRZ5, 257-276: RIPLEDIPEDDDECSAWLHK
UniProt Q12802: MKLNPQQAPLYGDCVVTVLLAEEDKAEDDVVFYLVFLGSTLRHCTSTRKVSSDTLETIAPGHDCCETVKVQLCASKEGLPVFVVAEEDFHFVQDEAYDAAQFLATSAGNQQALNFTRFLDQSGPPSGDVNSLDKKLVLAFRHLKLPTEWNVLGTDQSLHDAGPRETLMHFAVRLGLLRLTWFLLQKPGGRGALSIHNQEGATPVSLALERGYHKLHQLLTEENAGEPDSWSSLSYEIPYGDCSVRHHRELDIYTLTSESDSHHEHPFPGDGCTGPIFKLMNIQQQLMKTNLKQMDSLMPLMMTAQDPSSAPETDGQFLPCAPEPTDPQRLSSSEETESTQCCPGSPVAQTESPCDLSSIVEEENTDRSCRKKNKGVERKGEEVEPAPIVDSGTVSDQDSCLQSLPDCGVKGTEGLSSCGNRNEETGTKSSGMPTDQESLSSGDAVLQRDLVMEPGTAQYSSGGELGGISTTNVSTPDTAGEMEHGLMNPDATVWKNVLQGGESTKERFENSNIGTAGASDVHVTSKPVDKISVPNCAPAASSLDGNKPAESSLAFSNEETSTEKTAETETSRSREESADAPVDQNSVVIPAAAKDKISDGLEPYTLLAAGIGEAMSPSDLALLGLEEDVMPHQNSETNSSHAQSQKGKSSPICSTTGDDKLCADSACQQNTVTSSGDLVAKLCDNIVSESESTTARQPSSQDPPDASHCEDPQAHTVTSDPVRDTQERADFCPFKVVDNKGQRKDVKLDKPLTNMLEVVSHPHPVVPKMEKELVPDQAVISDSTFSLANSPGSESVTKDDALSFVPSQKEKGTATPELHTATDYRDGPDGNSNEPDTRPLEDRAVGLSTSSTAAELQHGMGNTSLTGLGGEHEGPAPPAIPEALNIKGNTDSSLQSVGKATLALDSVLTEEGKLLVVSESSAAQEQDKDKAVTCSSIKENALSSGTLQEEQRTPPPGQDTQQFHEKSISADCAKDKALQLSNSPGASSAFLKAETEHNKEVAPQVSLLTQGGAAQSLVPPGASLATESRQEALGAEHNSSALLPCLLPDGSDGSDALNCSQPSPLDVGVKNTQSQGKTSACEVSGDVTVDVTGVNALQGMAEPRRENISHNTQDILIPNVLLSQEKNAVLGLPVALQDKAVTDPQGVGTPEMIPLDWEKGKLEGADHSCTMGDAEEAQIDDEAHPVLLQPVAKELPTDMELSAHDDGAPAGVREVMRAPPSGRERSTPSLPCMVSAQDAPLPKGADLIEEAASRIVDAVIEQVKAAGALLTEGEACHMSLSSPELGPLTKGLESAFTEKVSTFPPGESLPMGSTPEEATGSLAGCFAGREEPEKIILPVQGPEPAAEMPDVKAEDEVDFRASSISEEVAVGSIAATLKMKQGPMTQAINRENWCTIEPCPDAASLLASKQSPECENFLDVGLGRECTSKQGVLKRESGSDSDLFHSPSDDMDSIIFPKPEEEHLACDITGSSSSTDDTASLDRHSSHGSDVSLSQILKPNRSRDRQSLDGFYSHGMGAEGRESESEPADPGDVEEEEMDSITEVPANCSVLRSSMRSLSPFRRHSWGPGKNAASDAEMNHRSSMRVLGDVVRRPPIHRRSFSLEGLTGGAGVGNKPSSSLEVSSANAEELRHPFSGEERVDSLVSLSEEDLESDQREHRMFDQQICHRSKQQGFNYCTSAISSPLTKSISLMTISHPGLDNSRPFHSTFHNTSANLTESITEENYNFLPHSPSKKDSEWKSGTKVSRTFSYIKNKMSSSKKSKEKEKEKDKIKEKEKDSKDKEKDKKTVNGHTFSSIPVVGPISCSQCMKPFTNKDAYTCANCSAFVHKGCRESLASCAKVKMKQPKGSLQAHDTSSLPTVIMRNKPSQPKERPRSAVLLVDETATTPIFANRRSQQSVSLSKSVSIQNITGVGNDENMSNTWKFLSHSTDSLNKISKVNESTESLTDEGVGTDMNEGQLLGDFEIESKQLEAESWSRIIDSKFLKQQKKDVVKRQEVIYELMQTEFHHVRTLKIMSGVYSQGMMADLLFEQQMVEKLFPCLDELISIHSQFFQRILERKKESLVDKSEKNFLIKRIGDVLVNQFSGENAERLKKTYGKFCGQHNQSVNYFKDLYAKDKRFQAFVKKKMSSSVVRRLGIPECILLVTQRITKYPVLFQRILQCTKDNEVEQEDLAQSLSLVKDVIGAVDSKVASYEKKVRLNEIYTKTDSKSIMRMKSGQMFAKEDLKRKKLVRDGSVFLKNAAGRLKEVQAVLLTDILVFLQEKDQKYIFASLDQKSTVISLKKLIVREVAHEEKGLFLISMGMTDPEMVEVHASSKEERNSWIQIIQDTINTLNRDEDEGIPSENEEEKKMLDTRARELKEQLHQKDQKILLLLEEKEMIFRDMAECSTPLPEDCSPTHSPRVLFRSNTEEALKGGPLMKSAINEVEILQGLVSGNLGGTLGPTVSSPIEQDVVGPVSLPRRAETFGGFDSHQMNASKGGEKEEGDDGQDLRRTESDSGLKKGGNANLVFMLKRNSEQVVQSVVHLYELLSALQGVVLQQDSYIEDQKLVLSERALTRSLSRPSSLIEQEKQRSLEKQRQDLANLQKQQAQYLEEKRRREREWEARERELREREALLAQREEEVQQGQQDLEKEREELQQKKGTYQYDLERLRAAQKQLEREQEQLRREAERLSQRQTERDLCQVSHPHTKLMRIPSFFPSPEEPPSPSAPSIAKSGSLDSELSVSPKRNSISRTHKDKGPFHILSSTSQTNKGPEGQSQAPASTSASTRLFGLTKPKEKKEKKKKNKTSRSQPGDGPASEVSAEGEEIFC
UniProt Q4VCS5: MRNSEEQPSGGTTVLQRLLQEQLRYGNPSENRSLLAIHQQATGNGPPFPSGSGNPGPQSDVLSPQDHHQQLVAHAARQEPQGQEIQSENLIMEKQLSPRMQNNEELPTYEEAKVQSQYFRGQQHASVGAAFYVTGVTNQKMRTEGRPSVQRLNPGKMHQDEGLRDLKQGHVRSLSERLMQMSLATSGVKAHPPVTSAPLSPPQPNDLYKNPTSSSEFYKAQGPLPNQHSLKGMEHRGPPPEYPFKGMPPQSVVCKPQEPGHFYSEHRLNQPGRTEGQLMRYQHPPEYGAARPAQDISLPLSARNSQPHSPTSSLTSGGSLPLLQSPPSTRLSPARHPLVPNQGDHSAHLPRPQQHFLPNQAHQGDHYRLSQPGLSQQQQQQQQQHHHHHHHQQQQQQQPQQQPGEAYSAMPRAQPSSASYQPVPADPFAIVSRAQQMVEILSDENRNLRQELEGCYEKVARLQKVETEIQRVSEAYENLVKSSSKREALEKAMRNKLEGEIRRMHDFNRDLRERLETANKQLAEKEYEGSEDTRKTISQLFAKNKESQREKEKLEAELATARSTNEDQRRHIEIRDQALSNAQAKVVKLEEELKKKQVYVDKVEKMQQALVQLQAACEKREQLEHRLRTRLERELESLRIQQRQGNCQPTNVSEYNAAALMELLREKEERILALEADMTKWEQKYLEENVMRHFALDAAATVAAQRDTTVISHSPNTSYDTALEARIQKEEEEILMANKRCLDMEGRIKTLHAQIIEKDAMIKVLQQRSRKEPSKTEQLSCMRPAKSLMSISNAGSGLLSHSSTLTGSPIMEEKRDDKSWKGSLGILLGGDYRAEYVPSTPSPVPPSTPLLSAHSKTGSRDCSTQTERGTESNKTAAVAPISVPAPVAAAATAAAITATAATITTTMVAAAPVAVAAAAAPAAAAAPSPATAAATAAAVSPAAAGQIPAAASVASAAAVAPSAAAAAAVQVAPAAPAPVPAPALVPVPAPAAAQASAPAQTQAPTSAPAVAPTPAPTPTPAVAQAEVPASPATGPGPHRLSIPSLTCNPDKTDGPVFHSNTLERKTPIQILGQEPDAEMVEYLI
UniProt P49189: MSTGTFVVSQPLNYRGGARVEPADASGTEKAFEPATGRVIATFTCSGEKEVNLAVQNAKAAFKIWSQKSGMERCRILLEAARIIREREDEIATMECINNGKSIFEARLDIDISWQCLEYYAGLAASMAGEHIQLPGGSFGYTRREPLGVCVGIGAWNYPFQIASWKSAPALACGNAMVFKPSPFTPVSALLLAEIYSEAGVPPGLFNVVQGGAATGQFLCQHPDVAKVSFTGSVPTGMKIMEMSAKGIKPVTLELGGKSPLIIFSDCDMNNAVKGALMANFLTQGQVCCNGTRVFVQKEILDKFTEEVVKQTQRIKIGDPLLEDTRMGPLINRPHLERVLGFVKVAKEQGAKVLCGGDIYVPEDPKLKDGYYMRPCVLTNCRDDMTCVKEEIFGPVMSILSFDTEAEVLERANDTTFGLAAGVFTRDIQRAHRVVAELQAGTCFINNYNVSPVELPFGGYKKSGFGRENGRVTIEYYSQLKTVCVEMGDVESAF
UniProt Q9BWD1, 342-361: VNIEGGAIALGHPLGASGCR

This is one part of the list. The data scatter; read single values as rough.

Compound in the first experiment: ClCC(=O)N[C@@H]1CCCc2ccccc12
Description: log2 mean competition ratio of IA-DTB cysteine labelling (DMSO/compound) (log2 ratio); higher = stronger cysteine engagement by compound. The following applies: 50 µM; treatment time: 4 h; cell line lysate: HEK293T. On the procedure:
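IA-DTB competitive cysteine chemoproteomics in HEK293T RIPA lysate. Lysates were treated with compound 29 or 30 at 50 or 200 µM for 4 h, then IA-DTB (500 µM, 1 h), trypsin-digested, NeutrAvidin-enriched and analysed by diaPASEF. Competition ratio = intensity DMSO / intensity compound (n=4 treated, n=64 DMSO); binding: mean log2 CR ≥ 1 and p ≤ 0.05 plus QC filters. Target is the cysteine site.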
With AFG3L2 C313 (UniProt Q9Y4W6), the “log2 mean competition ratio” value worked out at 0.13.
On the same count and under the same terms, then ALKBH1 C371 (UniProt Q13686), with -0.247; and ACLY C1040 (UniProt P53396), with 0.0339; and ADGRE5 C802, with 0.637.
On to AIMP2 C168 (UniProt Q13155), for which the “log2 mean competition ratio” value is -0.246.
Regarding ACTA2 C219, the “log2 mean competition ratio” value is 0.175.
On the same count and under the same terms, as for AFF3 C403, the figure is 0.0852; as for AFTPH C511 (UniProt Q6ULP2), -0.465.
The same measure, in the same setting: as for AMDHD2 C338 (UniProt Q9Y303), the figure is -0.0507; as for ALDH7A1 C522 (UniProt P49419), 0.328; as for ADAM17 C365 (UniProt P78536), -0.0187.
With ANAPC5 C203 (UniProt Q9UJX4), the “log2 mean competition ratio” value turned out to be 0.0186.
Still for that read-out and setting: then ACSF3 C83 (UniProt Q4G176), with -0.271.
For the target ACSS3 C498 (UniProt Q9H6R3), the “log2 mean competition ratio” value came to 0.218.
On the same count and under the same terms, then ANAPC1 C437 (UniProt Q9H1A4), with 0.0894; and ANAPC5 C86 (UniProt Q9UJX4), with -0.327; and AGPAT4 C270 (UniProt Q9NRZ5), with 0.264.
Same read-out and setting: then ACOT9 C299 (UniProt Q9Y305), with 0.0996; and AJUBA C338 (UniProt Q96IF1), with -0.111; and ADAL C10 (UniProt Q6DHV7), with -0.1.
Consider AKAP13 C732 (UniProt Q12802), for which the “log2 mean competition ratio” value came out at 0.0651.
Still for that read-out and setting: then AKAP10 C110 (UniProt O43572), with -0.0659; and AMOT C617 (UniProt Q4VCS5), with 0.322; and ALMS1 C2993 (UniProt Q8TCU4), with 0.169.
Same read-out and setting: as for AKAP13 C972 (UniProt Q12802), the figure is 0.00425.
For the target ALDH9A1 C96 (UniProt P49189), the “log2 mean competition ratio” value was -0.466.
On to AKT2 C297 (UniProt P31751), for which the “log2 mean competition ratio” value came out at 0.245.
Same read-out and setting: as for ADAMTS1 C892, the figure is -0.168.
As for AGK C408 (UniProt Q53H12), the “log2 mean competition ratio” value was -0.0999.
In the case of AKAP1 C147 (UniProt Q92667), the “log2 mean competition ratio” value was -0.0397.
Regarding AKAP12 C1521 (UniProt Q02952), the “log2 mean competition ratio” value was -0.272.
ACOT8 C302 (UniProt O14734): the “log2 mean competition ratio” value was -0.303.
On the same count and under the same terms, as for AFG3L2 C626 (UniProt Q9Y4W6), the figure is 0.268.
The same measure, in the same setting: then ACAT2 C360 (UniProt Q9BWD1), with 0.355.
The same measure, in the same setting: then AHCTF1 C354 (UniProt Q8WYP5), with -0.0949; and AMOT C862 (UniProt Q4VCS5), with -0.0829.
For AKAP17A C522 (UniProt Q02040), the “log2 mean competition ratio” value was -0.0586.

Staying with this experiment, now noted: 200 µM; treatment time: 4 h; cell line lysate: HEK293T.
AFG3L2 C313 (UniProt Q9Y4W6): the “log2 mean competition ratio” value stood at 0.251.
ALKBH1 C371 (UniProt Q13686): the “log2 mean competition ratio” value was -0.0221.
Still for that read-out and setting: as for ACLY C1040 (UniProt P53396), the figure is 0.0284; as for ADGRE5 C802, 0.203; as for AIMP2 C168 (UniProt Q13155), 0.184.
Still for that read-out and setting: then ACTA2 C219, with 0.0588; and AFF3 C403, with 0.112; and AFTPH C511 (UniProt Q6ULP2), with -0.18.
Regarding AMDHD2 C338 (UniProt Q9Y303), the “log2 mean competition ratio” value is 0.0466.
On to ALDH7A1 C522 (UniProt P49419), for which the “log2 mean competition ratio” value was determined as 0.0177.
The same measure, in the same setting: then ADAM17 C365 (UniProt P78536), with 0.0787; and ANAPC5 C203 (UniProt Q9UJX4), with -0.00639.
With ACSF3 C83 (UniProt Q4G176), the “log2 mean competition ratio” value is 0.181.
Same read-out and setting: then ACSS3 C498 (UniProt Q9H6R3), with -0.0813; and ANAPC1 C437 (UniProt Q9H1A4), with -0.147; and ANAPC5 C86 (UniProt Q9UJX4), with 0.0707.
For the target AGPAT4 C270 (UniProt Q9NRZ5), the “log2 mean competition ratio” value stood at 0.235.
On the same count and under the same terms, as for ACOT9 C299 (UniProt Q9Y305), the figure is 0.0534; as for AJUBA C338 (UniProt Q96IF1), -0.198.
The same measure, in the same setting: as for ADAL C10 (UniProt Q6DHV7), the figure is -0.0206; as for AKAP13 C732 (UniProt Q12802), -0.00854.
Still for that read-out and setting: as for AKAP10 C110 (UniProt O43572), the figure is 0.133.
As for AMOT C617 (UniProt Q4VCS5), the “log2 mean competition ratio” value was 0.0819.
Regarding ALMS1 C2993 (UniProt Q8TCU4), the “log2 mean competition ratio” value is 0.0247.
For the target AKAP13 C972 (UniProt Q12802), the “log2 mean competition ratio” value was -0.0632.
Still for that read-out and setting: then ALDH9A1 C96 (UniProt P49189), with -0.245.
Same read-out and setting: then AKT2 C297 (UniProt P31751), with 0.276.
Same read-out and setting: as for ADAMTS1 C892, the figure is 0.626.
For the target AGK C408 (UniProt Q53H12), the “log2 mean competition ratio” value is -0.198.
The same measure, in the same setting: then AKAP1 C147 (UniProt Q92667), with -0.000529; and AKAP12 C1521 (UniProt Q02952), with -0.0371; and ACOT8 C302 (UniProt O14734), with 0.336.
Same read-out and setting: then AFG3L2 C626 (UniProt Q9Y4W6), with -0.0272; and ACAT2 C360 (UniProt Q9BWD1), with 0.0829.
Regarding AHCTF1 C354 (UniProt Q8WYP5), the “log2 mean competition ratio” value was -0.196.
Same read-out and setting: as for AMOT C862 (UniProt Q4VCS5), the figure is 0.105; as for AKAP17A C522 (UniProt Q02040), 0.204.
